According to PubChem BioAssay AID1347076 (National Center for Advancing Translational Sciences (NCATS), 2019):
The campaign covered roughly 400,000 compounds. About 13,000 (3.2%) were called active. Inconclusive means that the source gave no clear call. Such entries were picked first, then a sample of the others. Calls follow the shape of the dose curve; as a rule, active = well fitted cell-killing curve with a large enough effect; inconclusive = small, poorly fitted or top-dose-only effect, or effect the other way; inactive = flat fitted curve, though single readings scatter. Potencies beside an inconclusive call are fits to weak or partial responses and may not hold up.
% is scaled to controls: 0 for no effect and ±100 for the full control effect; potency is read from the fitted curve at half-maximal effect.

Experiment: qHTS assay for MDR1-selective chemotherapeutics: Primary screen using the drug-selected MDR subline cells KB-V1; also: nearly all actives have a fitted effect of over 60% in size
Conditions: KB-V1 MDR cells viability, CellTiter-Glo, 72 h; activity change, negative = cytotoxicity: at 46.1 µM (top of the series)
Procedure, shortened: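 Cells of the MDR subline KB-V1 are plated, dosed with compound at multiple concentrations, and incubated 72 h at 37 degrees C; CellTiter-Glo is then added and luminescence read after 10 min.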
For Cc1cccc(N2C(=O)c3cccc4c(N5CCCCC5)c([N+](=O)[O-])cc(c34)C2=O)c1C, the Potency was inconclusive: 18.4 µM [cytotoxic, partial curve, poor fit]. For O=C(CSc1nnc(COc2ccccc2)n1Cc1ccco1)Nc1ccc2c(c1)OCCO2, the Potency was inconclusive: 11.6 µM [cytotoxic, partial curve]. For COc1ccc(/C=C2\SC(=S)N(Cc3cccnc3)C2=O)cc1C, the Potency was inconclusive: 29.1 µM [cytotoxic, single point]. With CCCCOc1cccc(C(=O)Nc2ccc(NC(=O)c3ccco3)cc2)c1 the Potency was inconclusive: 4.61 µM [cytotoxic, partial curve]. With CCn1nc(C)cc1C(=O)Sc1ccc(C)cc1 the “activity change, negative = cytotoxicity” value was inactive: 8.18%. In the case of O=c1c2cn[nH]c2nc(SCc2cccc(Br)c2)n1-c1ccc(Cl)cc1, the “activity change, negative = cytotoxicity” value was inactive: 5.66%. With CCOC(=O)C1C(=O)CC(O)(c2ccccc2)CC1c1ccccc1 (stereo not given) the Potency was active: 23.1 µM. With O=C(O)COCc1nc2ccccc2s1 the Potency was inconclusive: 29.1 µM [rising, single point]. For Cc1ccn2c(/C=N/OCc3ccc(F)cc3)c(-c3ccc(Cl)cc3)nc2c1, the Potency was inconclusive: 6.51 µM [cytotoxic, partial curve]. In the case of CCOc1cc(/C=C2\COc3ccccc3C2=O)cc(Br)c1OCC(=O)N(C)C, the Potency was inconclusive: 5.17 µM [cytotoxic, full curve, poor fit]. With CCOc1cc(C2C3=C(CC(C)(C)CC3=O)OC3=C2C(=O)CC(C)(C)C3)cc([N+](=O)[O-])c1O the Potency was inconclusive: 16.4 µM [cytotoxic, single point]. For COc1cccc(/C=N/NC(=O)c2cccc([N+](=O)[O-])c2)c1OS(=O)(=O)c1ccc(C)cc1, the Potency was active: 16.4 µM. With O=[N+]([O-])c1cc(Cl)cc2c1nc(NCCO)c1ccccc12 the Potency was inconclusive: 20.6 µM [cytotoxic, partial curve, poor fit]. For Cc1cc(Br)ccc1S(=O)(=O)n1ccnc1C, the Potency was inconclusive: 25.9 µM [rising, single point]. For C=CCN1C(=O)C(Cc2ccc(C)cc2)S/C1=N/N=C/c1ccco1 (stereo not given), the Potency was inconclusive: 20.6 µM [cytotoxic, single point]. For COc1ccc(CCNC(=O)c2ccc(NC3=NC4CS(=O)(=O)CC4S3)cc2)cc1OC (stereo not given), the Potency was inconclusive: 7.31 µM [rising, full curve, poor fit]. In the case of CCN1CCN(c2cc3c(cc2F)c(=O)c(S(=O)(=O)c2ccc(OC)cc2)cn3CC)CC1, the “activity change, negative = cytotoxicity” value was inactive: 6.39%. For CSc1nc(SCC(N)=O)c2c3c(sc2n1)CN(C)CC3, the “activity change, negative = cytotoxicity” value was inactive: -1.4%. For CSc1ccccc1NC(=O)C1CCCN(S(C)(=O)=O)C1 (stereo not given), the “activity change, negative = cytotoxicity” value was inactive: 0%. In the case of N/C(=N\OC(=O)COc1ccc(Cl)cc1Cl)c1cccnc1, the Potency was inconclusive: 20.6 µM [cytotoxic, single point]. In the case of CC(OC(=O)c1snc(C(=O)NC2CCCCC2)c1N)C(=O)NC1CCCCC1 (stereo not given), the Potency was inconclusive: 13 µM [cytotoxic, partial curve, poor fit]. In the case of COc1cc2nc(/C=C/c3cc(OC)c(OC)c(OC)c3)sc2cc1SC, the Potency was active: 10.3 µM. With CN(C)CCCN(C(=O)c1cccs1)c1nc(-c2ccccc2)cs1 the Potency was active: 9.2 µM. For Cc1nc2ccccc2c(=O)n1-c1ccc(F)c(NS(=O)(=O)c2ccccc2F)c1, the “activity change, negative = cytotoxicity” value was inactive: 8.88%. In the case of COC(=O)c1ccc(Cn2cnc3ccccc3c2=O)cc1, the “activity change, negative = cytotoxicity” value was inactive: -22.6%. In the case of Cc1ccc2cc(C(c3nnnn3CC3CCCO3)N3CCCC4(CCCCC4)C3)c(=O)[nH]c2c1 (stereo not given), the Potency was active: 14.6 µM. In the case of O=Cc1cn(CC(=O)N2CCCc3ccccc32)c2ccccc12, the Potency was inconclusive: 16.4 µM [cytotoxic, single point]. In the case of CCn1c(=O)c2c(O)cc(=O)oc2c2ccccc21, the Potency was inconclusive: 29.1 µM [cytotoxic, single point]. In the case of CC(C)=CCc1ccc(O)c(=O)cc1C(C)C, the Potency was inconclusive: 23.1 µM [cytotoxic, partial curve, poor fit]. With CCOCCCNC(=O)c1cc(-c2ccc(Br)s2)nc2ccccc12 the “activity change, negative = cytotoxicity” value was inactive: 0.0462%. With CC(C)Cn1c(=O)c2ccccc2n2c(CCC(=O)NCC3CCCO3)nnc12 (stereo not given) the Potency was inconclusive: 1.84 µM [rising, full curve]. In the case of CCOc1cc(CNCCSc2nnnn2C)cc(Br)c1OCc1ccccc1, the Potency was inconclusive: 4.61 µM [cytotoxic, full curve]. In the case of CCN(C(=O)c1cccc(Br)c1)c1ccccc1, the “activity change, negative = cytotoxicity” value was inactive: -24.7%. With COc1cccc(/C(C)=N/NC(=O)Cc2c(C)[nH][nH]c2=O)c1 the “activity change, negative = cytotoxicity” value was inactive: 0%. In the case of COC(=O)c1ccccc1NC(=O)CN(c1c(C)cccc1C)S(C)(=O)=O, the “activity change, negative = cytotoxicity” value was inactive: -4.53%. With Cc1ccc(F)cc1C(=O)N1CCCC(C)(C(=O)NS(=O)(=O)C2CC2)C1 (stereo not given) the “activity change, negative = cytotoxicity” value was inactive: 4.08%. For Cc1c(C(=O)Nc2cccc(C(F)(F)F)c2)sc2nc3n(c(=O)c12)CCCC3, the “activity change, negative = cytotoxicity” value was inactive: -1.47%. In the case of COc1cc2c(cc1OC)C(c1cccs1)N(C(=O)C(C)C)CC2 (stereo not given), the Potency was active: 14.1 µM. In the case of O=C(CSc1nnc(-c2ccncc2)o1)N1CCc2ccccc2C1, the Potency was inconclusive: 14.6 µM [cytotoxic, single point]. For COc1ccc2c3n(nc2c1)CCN=C3c1ccc(C)cc1, the Potency was inconclusive: 32.6 µM [cytotoxic, single point]. For CCOC(=O)C1=C(C)Nc2ccccc2N=C1NC(=O)c1ccc(Cl)c(S(=O)(=O)N2CCCC2)c1, the Potency was inconclusive: 16.4 µM [cytotoxic, single point]. With CCOC(=O)C1CCN(C(=O)COC(=O)CSc2ccc(C(N)=O)cc2[N+](=O)[O-])CC1 the “activity change, negative = cytotoxicity” value was inactive: 0.043%. For CCCCOCCCNC(=O)C[C@@H]1C[C@@]2(C(=O)OCC)CCCC=C2N(Cc2ccc3c(c2)OCO3)C1=O, the Potency was inconclusive: 20.6 µM [cytotoxic, partial curve, poor fit]. With CCOC(=O)Cc1csc(NC(=O)Nc2cccc(Cl)c2)n1 the Potency was active: 14.6 µM. For CCN1CCN(c2oc(-c3ccc(COc4ccc(C)cc4)o3)nc2C#N)CC1, the “activity change, negative = cytotoxicity” value was inactive: -24.2%. In the case of O=C(c1ccc2c(=O)n(-c3ccccc3)c(=O)[nH]c2c1)N1CCCCC1, the Potency was inconclusive: 20.6 µM [cytotoxic, single point]. With CCN1C(=O)/C(=C/N(C(C)=O)c2ccccc2)N(c2ccccc2)C1=S the Potency was inconclusive: 23.1 µM [cytotoxic, single point]. With CSCCC(NC(=O)c1ccccc1Cl)C(=O)NNC(=O)c1ccccc1O (stereo not given) the Potency was inconclusive: 20.6 µM [cytotoxic, single point]. In the case of Clc1cccc(Cl)c1Cn1cnc(=NCc2ccco2)c2[nH]cnc21, the Potency was active: 8.2 µM. With COc1ccc(C2CC(=O)N(Cc3ccc(F)cc3)c3ccccc3S2)cc1 (stereo not given) the Potency was active: 14.6 µM. With Fc1ccc(C2c3cccn3CCN2C(=S)Nc2cccc(Br)c2)cc1 (stereo not given) the Potency was inconclusive: 5.8 µM [cytotoxic, partial curve]. In the case of CCOC(=O)Cn1c(=O)oc2cc(S(=O)(=O)NC3CCCc4ccccc43)ccc21 (stereo not given), the Potency was inconclusive: 29.1 µM [rising, single point]. In the case of CCOC(=O)N1CCN(C(=O)CSc2cc(C)nc3c(-c4ccccc4OC)c(C)nn23)CC1, the Potency was inconclusive: 8.2 µM [cytotoxic, partial curve, poor fit]. For CC(C)C(=O)N1c2ncnn2C2(CCCCC2)[C@@H]2CCCC[C@@H]21, the “activity change, negative = cytotoxicity” value was inactive: -0.767%. In the case of Cc1ccc(NCc2nnc(SCC(=O)Nc3nnc(C)s3)n2C)cc1, the Potency was inconclusive: 29.1 µM [rising, single point]. With CCc1cccc(CC)c1NC(=O)COC(=O)CC1c2ccccc2CCN1S(=O)(=O)c1ccc(F)cc1 (stereo not given) the Potency was active: 18.4 µM. In the case of CN(C)Cc1c(O)ccc2ccccc12, the “activity change, negative = cytotoxicity” value was inactive: -9.17%. With COc1ccccc1NC(=S)N=Nc1c(O)[nH]c2ccc(Br)cc12 the Potency was inconclusive: 3.66 µM [cytotoxic, partial curve, poor fit]. In the case of COc1ccc2c3c(c(=O)oc2c1OCC(=O)O)CCCC3, the “activity change, negative = cytotoxicity” value was inactive: -10.4%. For Cc1cccc(N2CCN(C(=O)Cc3c(C(=O)O)[nH]c4ccc(Cl)cc34)CC2)c1C, the Potency was inconclusive: 29.1 µM [rising, single point]. For O=C(CSc1nnc(SCc2ccc(Cl)cc2)s1)N/N=C/c1c(Cl)cccc1Cl, the Potency was inconclusive: 23.1 µM [cytotoxic, single point]. With O=C(Nc1cccc(Br)c1)c1cc(S(=O)(=O)N2CCOCC2)cs1 the Potency was inconclusive: 29.1 µM [cytotoxic, single point]. For COc1cccc(NC(=O)CSc2nc(=O)n(Cc3ccco3)c3c2CCC3)c1, the “activity change, negative = cytotoxicity” value was inactive: 2.51%. For O=C(O)C1CCCCN1C(=O)c1cc2c(s1)CCCCC2 (stereo not given), the Potency was inconclusive: 20.6 µM [rising, single point]. With O=C(/C(=N\Nc1ccc([N+](=O)[O-])cc1)Sc1nnnn1-c1ccccc1)c1ccccc1 the Potency was active: 16.4 µM. With CCC(=O)N1CCCc2cc(S(=O)(=O)N3CCN(c4ccccn4)CC3)ccc21 the Potency was inconclusive: 0.291 µM [cytotoxic, full curve, poor fit]. For COc1cc(C2C(C(=O)OCC(C)C)=C(C)N=C3SCCC(=O)N32)ccc1OCc1ccccc1 (stereo not given), the Potency was inconclusive: 0.517 µM [rising, full curve, poor fit]. For CCCOC(=O)C1=C(C)NC(=O)NC1c1ccc(Br)s1 (stereo not given), the Potency was inconclusive: 18.4 µM [cytotoxic, single point]. In the case of CC[N+](CC)(CC)c1ccc(/C=C/c2ccnc3ccccc23)cc1, the Potency was inconclusive: 20.6 µM [cytotoxic, single point]. In the case of Cc1cc(Br)ccc1SCC(=O)OC/C(O)=C(\C#N)c1nc2ccccc2[nH]1, the Potency was inconclusive: 23.1 µM [cytotoxic, single point].
